Experimental findings from article PMC5472308, “Characterization of the regulation of a plant polysaccharide utilization operon and its role in biofilm formation in Bacillus subtilis” (PLoS ONE, 2017) are described below.

Chains of the proteins cited; added tags and fusions are not shown. Lines headed by an entry give the natural chain unless they say otherwise; changes in a name come on top.
UniProt O07008: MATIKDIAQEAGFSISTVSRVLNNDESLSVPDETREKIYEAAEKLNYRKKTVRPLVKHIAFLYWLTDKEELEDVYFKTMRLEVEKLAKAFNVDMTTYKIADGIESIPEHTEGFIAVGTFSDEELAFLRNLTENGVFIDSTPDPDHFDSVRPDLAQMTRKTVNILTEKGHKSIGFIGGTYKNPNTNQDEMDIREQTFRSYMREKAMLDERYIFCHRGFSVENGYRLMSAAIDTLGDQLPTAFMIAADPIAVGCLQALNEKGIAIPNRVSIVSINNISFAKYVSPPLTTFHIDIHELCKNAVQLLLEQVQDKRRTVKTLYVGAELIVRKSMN

In this data set the target is His6-GanR (Bacillus subtilis 3610) (UniProt O07008). Put plainly: EMSA. The settings on record: 10 mM Tris-HCl (pH not stated), 50 mM NaCl, 1 mM EDTA, 5% glycerol, 1 mM DTT, 10 ug/ml BSA, on ice 20 min, Cy3 probes with poly-dIdC, gel 0.5X TBE at 4 C, recombinant protein, protein details: His6, probe letters rebuilt from the primers and the genome.

Construct, isoform or probe ends are uncertain for at least one entry.

“GTACGAATTCCGAACGGATTTACAATGCTGTGGCTGCCGGGAACGGTGCACAGGCGGAAGCCGCCATGCTGGCGCATTTGACGAATGTGGAAGATGTGCTTTCGGGATATTTCGAGGAAAATGTGCAATAACCAACTCATTTCCCGGGCAATTCCGCCGGTTCCGAATGATACGAACAACTGAGACTGAGCCGCAAATGGTTCAGTCTTTTTACATGGCAGCCAGAGGGCTTTGTGCACTTGACATTTGTGAAAAAGAAAGTAAAATATTTTACTAAAACAATGCGAGCTGAATAATGGATCCGCGGCCGCGTAC (double strand) [PganR (ganR promoter)]”: under “one shifted band (1-30 uM protein, ~0.3 uM DNA)”, the binding result is given as “binds”.
As for “GTACGAATTCCGGACCCGATTGCAGTGGGCTGTCTGCAAGCCCTGAACGAAAAAGGAATTGCCATACCAAACAGGGTAAGCATTGTGAGTATCAACAACATCAGCTTCGCGAAGTATGTCTCGCCTCCTCTGACGACGTTTCATATTGATATACATGAATTATGTAAAAACGCTGTTCAATTACTGCTTGAACAAGTGCAGGACAAGAGAAGAACGGTAAAAACATTATATGTGGGCGCAGAATTAATCGTCAGGAAGAGTATGAATTAAGGATGACTTAGGACACTAAGTCATTTTTTATTTAGGTAAAAAAATTTACTCTATGAAGTAAATAGTTTGTTTACACATTTTCTCAGGCATGCTATATTATCTTTAAAGCGCTTTCATTCCTACCGAAGGATCCGTAC (double strand) [PganS (ganS promoter)]”, the binding result (two shifted bands at highest GanR (1-30 uM protein, ~0.3 uM DNA)) is given as “binds”.
